According to ChEMBL document CHEMBL4316593 (Eur J Med Chem, 2019):
The source gives many values for each of these; only a part stands here.

Experiments:
Type in all cases: cell-based
Conditions in all cases: U-87MG ATCC
[1] = Inhibition of RTK/PI3K/AKT/mTOR signaling in human U87 cells assessed as up regulation of lamin B receptor gene expression at cytotoxic IC50 measured after 48 hrs relative to control
[2] = Inhibition of RTK/PI3K/AKT/mTOR signaling in human U87 cells assessed as down regulation of EFNB2 gene expression at cytotoxic IC50 measured after 48 hrs relative to control
[3] = Inhibition of RTK/PI3K/AKT/mTOR signaling in human U87 cells assessed as up regulation of suppressor of cytokine signaling 5 gene expression at cytotoxic IC50 measured after 48 hrs relative to control
[4] = Inhibition of RTK/PI3K/AKT/mTOR signaling in human U87 cells assessed as down regulation of C9orf16 gene expression at cytotoxic IC50 measured after 48 hrs relative to control
[5] = Inhibition of RTK/PI3K/AKT/mTOR signaling in human U87 cells assessed as up regulation of cystatin A gene expression at cytotoxic IC50 measured after 48 hrs relative to control
[6] = Inhibition of RTK/PI3K/AKT/mTOR signaling in human U87 cells assessed as down regulation of RGP1 gene expression at cytotoxic IC50 measured after 48 hrs relative to control
[7] = Inhibition of RTK/PI3K/AKT/mTOR signaling in human U87 cells assessed as down regulation of HSD17B10 gene expression at cytotoxic IC50 measured after 48 hrs relative to control
[8] = Inhibition of RTK/PI3K/AKT/mTOR signaling in human U87 cells assessed as up regulation of CERS2 gene expression at cytotoxic IC50 measured after 48 hrs relative to control
[9] = Inhibition of RTK/PI3K/AKT/mTOR signaling in human U87 cells assessed as up regulation of coenzyme Q8A gene expression at cytotoxic IC50 measured after 48 hrs relative to control
[10] = Inhibition of RTK/PI3K/AKT/mTOR signaling in human U87 cells assessed as down regulation of GLB1 gene expression at cytotoxic IC50 measured after 48 hrs relative to control
[11] = Inhibition of RTK/PI3K/AKT/mTOR signaling in human U87 cells assessed as up regulation of BOP1 gene expression at cytotoxic IC50 measured after 48 hrs relative to control
[12] = Inhibition of RTK/PI3K/AKT/mTOR signaling in human U87 cells assessed as down regulation of PDPK1 gene expression at cytotoxic IC50 measured after 48 hrs relative to control
[13] = Inhibition of RTK/PI3K/AKT/mTOR signaling in human U87 cells assessed as up regulation of transmembrane channel like 4 gene expression at cytotoxic IC50 measured after 48 hrs relative to control
[14] = Inhibition of RTK/PI3K/AKT/mTOR signaling in human U87 cells assessed as up regulation of KCNH3 gene expression at cytotoxic IC50 measured after 48 hrs relative to control
[15] = Inhibition of RTK/PI3K/AKT/mTOR signaling in human U87 cells assessed as up regulation of ANGPTL4 gene expression at cytotoxic IC50 measured after 48 hrs relative to control
[16] = Inhibition of RTK/PI3K/AKT/mTOR signaling in human U87 cells assessed as down regulation of GTPBP1 gene expression at cytotoxic IC50 measured after 48 hrs relative to control
[17] = Inhibition of RTK/PI3K/AKT/mTOR signaling in human U87 cells assessed as down regulation of CSGALNACT2 gene expression at cytotoxic IC50 measured after 48 hrs relative to control
[18] = Inhibition of RTK/PI3K/AKT/mTOR signaling in human U87 cells assessed as down regulation of ZSWIM6 gene expression at cytotoxic IC50 measured after 48 hrs relative to control
[19] = Inhibition of RTK/PI3K/AKT/mTOR signaling in human U87 cells assessed as up regulation of ABALON gene expression at cytotoxic IC50 measured after 48 hrs relative to control
[20] = Inhibition of RTK/PI3K/AKT/mTOR signaling in human U87 cells assessed as down regulation of LSM3 gene expression at cytotoxic IC50 measured after 48 hrs relative to control
[21] = Inhibition of RTK/PI3K/AKT/mTOR signaling in human U87 cells assessed as up regulation of signal sequence receptor subunit 4 gene expression at cytotoxic IC50 measured after 48 hrs relative to control
[22] = Inhibition of RTK/PI3K/AKT/mTOR signaling in human U87 cells assessed as down regulation of TUBB6 gene expression at cytotoxic IC50 measured after 48 hrs relative to control
[23] = Inhibition of RTK/PI3K/AKT/mTOR signaling in human U87 cells assessed as down regulation of SF3B4 gene expression at cytotoxic IC50 measured after 48 hrs relative to control
[24] = Inhibition of RTK/PI3K/AKT/mTOR signaling in human U87 cells assessed as down regulation of PJA1 gene expression at cytotoxic IC50 measured after 48 hrs relative to control
[25] = Inhibition of RTK/PI3K/AKT/mTOR signaling in human U87 cells assessed as down regulation of E2F7 gene expression at cytotoxic IC50 measured after 48 hrs relative to control
[26] = Inhibition of RTK/PI3K/AKT/mTOR signaling in human U87 cells assessed as down regulation of CNPPD1 gene expression at cytotoxic IC50 measured after 48 hrs relative to control
[27] = Inhibition of RTK/PI3K/AKT/mTOR signaling in human U87 cells assessed as up regulation of APOLD1 gene expression at cytotoxic IC50 measured after 48 hrs relative to control
[28] = Inhibition of RTK/PI3K/AKT/mTOR signaling in human U87 cells assessed as down regulation of TOMM70 gene expression at cytotoxic IC50 measured after 48 hrs relative to control
[29] = Inhibition of RTK/PI3K/AKT/mTOR signaling in human U87 cells assessed as down regulation of RNF11 gene expression at cytotoxic IC50 measured after 48 hrs relative to control
[30] = Inhibition of RTK/PI3K/AKT/mTOR signaling in human U87 cells assessed as down regulation of GLA gene expression at cytotoxic IC50 measured after 48 hrs relative to control
[31] = Inhibition of RTK/PI3K/AKT/mTOR signaling in human U87 cells assessed as down regulation of CYTOR gene expression at cytotoxic IC50 measured after 48 hrs relative to control
[32] = Inhibition of RTK/PI3K/AKT/mTOR signaling in human U87 cells assessed as down regulation of NIPBL gene expression at cytotoxic IC50 measured after 48 hrs relative to control

## CC(=O)C(=NNc1ccccc1C#N)C(C)=O
[1]
  log2FC: 0.757
[2]
  log2FC: -1.33
[3]
  log2FC: 0.992
[4]
  log2FC: -0.718
[5]
  log2FC: 0.844
[6]
  log2FC: -0.801
[7]
  log2FC: -0.594
[8]
  log2FC: 0.393
[9]
  log2FC: 0.666
[10]
  log2FC: -0.648
[11]
  log2FC: 0.533
[12]
  log2FC: -0.919
[13]
  log2FC: 1.15
[14]
  log2FC: 1.71
[15]
  log2FC: 3.25
[16]
  log2FC: -0.831
[17]
  log2FC: -0.612
[18]
  log2FC: -1.45
[19]
  log2FC: 2.96
[20]
  log2FC: -0.842
[21]
  log2FC: 0.653
[22]
  log2FC: -0.73
[23]
  log2FC: -0.541
[24]
  log2FC: -0.925
[25]
  log2FC: -1.26
[26]
  log2FC: -0.675
[27]
  log2FC: 2.33
[28]
  log2FC: -0.617
[29]
  log2FC: -0.432
[30]
  log2FC: -1.18
[31]
  log2FC: -2.1
[32]
  log2FC: -0.743
